Experimental data published in article PMC11190564.
Results are given in words; binding and its absence hold for the method and conditions named. Binding seen in cells or lysates may run through a third protein. Some results given as binding are weak or reduced against the parent protein; the word gives no strength.

Amino acid sequences for entries named in this document (tags omitted).
UniProt Q9WV60: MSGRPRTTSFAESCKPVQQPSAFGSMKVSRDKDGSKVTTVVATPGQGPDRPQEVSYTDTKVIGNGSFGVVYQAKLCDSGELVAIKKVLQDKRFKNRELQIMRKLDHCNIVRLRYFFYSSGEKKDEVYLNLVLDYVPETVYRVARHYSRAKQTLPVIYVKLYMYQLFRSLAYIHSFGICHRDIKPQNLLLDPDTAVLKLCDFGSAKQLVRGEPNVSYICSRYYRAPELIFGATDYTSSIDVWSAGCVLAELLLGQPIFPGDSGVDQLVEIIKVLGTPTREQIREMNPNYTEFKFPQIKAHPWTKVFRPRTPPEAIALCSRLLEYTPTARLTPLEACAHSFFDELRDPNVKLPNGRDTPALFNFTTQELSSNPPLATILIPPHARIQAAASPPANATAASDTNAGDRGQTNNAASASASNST
UniProt P49841: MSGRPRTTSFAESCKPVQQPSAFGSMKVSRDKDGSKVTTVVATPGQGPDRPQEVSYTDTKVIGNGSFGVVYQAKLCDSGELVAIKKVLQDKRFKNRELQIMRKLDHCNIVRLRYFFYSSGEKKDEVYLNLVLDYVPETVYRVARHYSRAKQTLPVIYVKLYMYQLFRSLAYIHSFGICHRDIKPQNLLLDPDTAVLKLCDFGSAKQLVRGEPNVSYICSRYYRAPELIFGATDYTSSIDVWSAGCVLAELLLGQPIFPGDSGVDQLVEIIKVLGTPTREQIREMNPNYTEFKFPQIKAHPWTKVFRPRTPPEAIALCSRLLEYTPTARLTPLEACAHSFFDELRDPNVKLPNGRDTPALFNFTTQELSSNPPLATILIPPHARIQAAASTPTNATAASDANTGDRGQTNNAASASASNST

T1: Biliverdin reductase-A, human (human (endogenous in SHSY-5Y)) (UniProt P53004)
T1 sequence: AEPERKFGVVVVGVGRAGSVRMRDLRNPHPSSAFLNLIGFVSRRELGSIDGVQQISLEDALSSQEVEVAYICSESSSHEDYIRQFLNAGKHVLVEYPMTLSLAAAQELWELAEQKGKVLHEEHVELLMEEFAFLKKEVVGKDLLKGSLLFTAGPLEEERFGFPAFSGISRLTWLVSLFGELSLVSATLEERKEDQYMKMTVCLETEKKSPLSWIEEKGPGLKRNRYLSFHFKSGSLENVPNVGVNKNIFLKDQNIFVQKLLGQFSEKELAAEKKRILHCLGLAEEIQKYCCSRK

B1: Biliverdin reductase-A, mouse (protein, UniProt Q9CY64 3-295)
chain: TEPKRKFGVVVVGVGRAGSVRIRDLKDPHSSAFLNLIGYVSRRELGSLDNVRQISLEDALRSQEVDVAYICTESSSHEDYIRQFLQAGKHVLVEYPMALSFAAAQELWELAAQKGRVLHEEHIELLMEEFEFLKREVAGKELLKGSLRFTASPLEEEKFGFPAFSGISRLTWLVSLFGELSLISATMENRKEDQYMKMTVQLETQNKSPLSWIEEKGPGLKRNRHISIHFKSGSLEEVPNVGVNKNIFLKDQDIFIQKLLGQVSAEDLAAEKKRILHCLELASDIQRLCHRKQ

Columns and labels:
[1] = molecular target: T1, Biliverdin reductase-A, human (human (endogenous in SHSY-5Y)); assay: co-IP; mitochondrial extracts of SHSY-5Y cells, control or 100 nM insulin for 30 min (pooled, n = 2); anti-BVR-A, Protein G magnetic beads; blot for GSK3β, normalised on IPed BVR-A
[2] = molecular target: glycogen synthase kinase 3β, mouse (mouse (endogenous in hippocampus)) (UniProt Q9WV60); assay: co-IP; hippocampal mitochondrial extracts of WT mice, without or with intranasal insulin for 30 min (pooled, n = 2); anti-GSK3β, Protein G magnetic beads; blot for BVR-A

Row | Molecule | binding [1] | binding [2]
1 | glycogen synthase kinase 3β, human (from UniProt P49841 1-420) | binds | 
2 | B1 |  | binds
